Results as given in article PMC10783007.
No constants are given. Whether binding was seen depends on the method and setting. Binding seen in cells or lysates may run through a third protein. Binding can be weak; no strength is given. Sequences can lack the tags named with a protein.

Key:
[1] = target: RIG-I N-terminal tandem CARD domain construct; assay: co-IP; domain constructs of RIG-I or USP15 transfected into HEK293T cells for 48 h; Nonidet P-40 lysis buffer; IP with anti-Flag or anti-HA antibodies, IB with anti-Flag or anti-HA
[2] = target: RIG-I middle helicase domain construct; assay: as above

binding [1]: binds
binding [2]: binds
B1: HA-tagged USP15 (enzyme, UniProt Q9Y4E8 1-981)
chain: MAEGGAADLDTQRSDIATLLKTSLRKGDTWYLVDSRWFKQWKKYVGFDSWDKYQMGDQNVYPGPIDNSGLLKDGDAQSLKEHLIDELDYILLPTEGWNKLVSWYTLMEGQEPIARKVVEQGMFVKHCKVEVYLTELKLCENGNMNNVVTRRFSKADTIDTIEKEIRKIFSIPDEKETRLWNKYMSNTFEPLNKPDSTIQDAGLYQGQVLVIEQKNEDGTWPRGPSTPKSPGASNFSTLPKISPSSLSNNYNNMNNRNVKNSNYCLPSYTAYKNYDYSEPGRNNEQPGLCGLSNLGNTCFMNSAIQCLSNTPPLTEYFLNDKYQEELNFDNPLGMRGEIAKSYAELIKQMWSGKFSYVTPRAFKTQVGRFAPQFSGYQQQDCQELLAFLLDGLHEDLNRIRKKPYIQLKDADGRPDKVVAEEAWENHLKRNDSIIVDIFHGLFKSTLVCPECAKISVTFDPFCYLTLPLPMKKERTLEVYLVRMDPLTKPMQYKVVVPKIGNILDLCTALSALSGIPADKMIVTDIYNHRFHRIFAMDENLSSIMERDDIYVFEININRTEDTEHVIIPVCLREKFRHSSYTHHTGSSLFGQPFLMAVPRNNTEDKLYNLLLLRMCRYVKISTETEETEGSLHCCKDQNINGNGPNGIHEEGSPSEMETDEPDDESSQDQELPSENENSQSEDSVGGDNDSENGLCTEDTCKGQLTGHKKRLFTFQFNNLGNTDINYIKDDTRHIRFDDRQLRLDERSFLALDWDPDLKKRYFDENAAEDFEKHESVEYKPPKKPFVKLKDCIELFTTKEKLGAEDPWYCPNCKEHQQATKKLDLWSLPPVLVVHLKRFSYSRYMRDKLDTLVDFPINDLDMSEFLINPNAGPCRYNLIAVSNHYGGMGGGHYTAFAKNKDDGKWYYFDDSSVSTASEDQIVSKAAYVLFYQRQDTFSGTGFFPLDRETKGASAATGIPLESDEDSNDNDNDIENENCMHTN
